The results in this text go back to patent US20060242739A1, “Plant nucleotide-sugar pyrophosphatase/phosphodiesterase (nppase), method of obtaining same and use of same in the production of assay devices and in the production of transgenic plants” (Universidad Publica De Navarra, priority 2002, published 2006).

B1: NPPase: plant nucleotide pyrophosphatase/phosphodiesterase, soluble 70-kDa isoform purified from barley leaves (protein)
chain: MVSRKRGGGGGVAMAVAMLLAAASASRPSSSLEGFQPLSKIAVHKATVDLHGSAFVSATPALLGDQGEDTEWVTVKYGWANPSADDWIAVFSPADFISGSCPNPSRYPDEPLLCTAPIKYQFANYSANYVYWGKGSIRFQLINQRYDFSFALFTGGLENPKLVAVSEAISFKNPKAPVYPRLAQGKSYDEMTVTWTSGYDISEAYPFVEWGMVVAGAAAPTRTAAGTLTFNRGSMCGDPDRTVGWRDPGFIHTAFLRDLWPNKEYYYKIGHELSDGSIVWGKQYTFRAPPFPGQNSLQRIIVFGDMGKAERDGSNEFANYQPGSLNTTDRLVEDLDNYDIVFHIGDLPYANGYISQWDQFTAQVAPITAKKPYMIASGNHERDWPNTGGFFDVKDSGGECGVPAETMYYYPAENRANFWYKVDYGMFRFCIADSEHDWREGTDQYKFIEQCLSTVDRKHQPWLIFAAHRVLGYSSNWWYADQQSFEEPEGRESLQRLWQRHRVDVAFFGHVHNYERTCPMYQSQCVSGERRRYSGTMNGTIFVVAGGGGSHLSDYTSAIPKWSVFRDRDFGFVKLTAFNHSSLLFEYKKSSDGKVYDSFTVERDYRDVLSCVHDSCLPTTLAS
Regarding B1, the “Keq′ of the reaction” value worked out at 110.
